These are yes or no findings as the source states them, for the method shown. In cells and extracts the contact can be indirect. Some results given as binding are weak or reduced against the parent protein; the word gives no strength.
Columns and labels:
Flag-tagged FTO = Flag-tagged FTO (UniProt Q9C0B1); assay: co-IP; HEK 293 T cells transfected with Myc-USP7 and Flag-FTO plasmids; immunoprecipitation with anti-Myc or anti-Flag
[1] = biological target: fat mass and obesity-associated protein (FTO), endogenous (human (endogenous in HEK 293 T and CFPAC-GM)) (UniProt Q9C0B1); assay: co-IP; endogenous proteins in HEK 293 T lysates; immunoprecipitation with an antibody to one partner, immunoblotting for the other, both directions
[2] = biological target: fat mass and obesity-associated protein (FTO), endogenous (human (endogenous in HEK 293 T and CFPAC-GM)) (UniProt Q9C0B1); assay: co-IP; CFPAC-GM cell lysates; primary antibody overnight at 4 C, protein G Dynabeads 1 h at room temperature (supplementary Figures S3, S4)

By UniProt entry, the sequences of proteins in these tests, tags left out.
UniProt Q93009: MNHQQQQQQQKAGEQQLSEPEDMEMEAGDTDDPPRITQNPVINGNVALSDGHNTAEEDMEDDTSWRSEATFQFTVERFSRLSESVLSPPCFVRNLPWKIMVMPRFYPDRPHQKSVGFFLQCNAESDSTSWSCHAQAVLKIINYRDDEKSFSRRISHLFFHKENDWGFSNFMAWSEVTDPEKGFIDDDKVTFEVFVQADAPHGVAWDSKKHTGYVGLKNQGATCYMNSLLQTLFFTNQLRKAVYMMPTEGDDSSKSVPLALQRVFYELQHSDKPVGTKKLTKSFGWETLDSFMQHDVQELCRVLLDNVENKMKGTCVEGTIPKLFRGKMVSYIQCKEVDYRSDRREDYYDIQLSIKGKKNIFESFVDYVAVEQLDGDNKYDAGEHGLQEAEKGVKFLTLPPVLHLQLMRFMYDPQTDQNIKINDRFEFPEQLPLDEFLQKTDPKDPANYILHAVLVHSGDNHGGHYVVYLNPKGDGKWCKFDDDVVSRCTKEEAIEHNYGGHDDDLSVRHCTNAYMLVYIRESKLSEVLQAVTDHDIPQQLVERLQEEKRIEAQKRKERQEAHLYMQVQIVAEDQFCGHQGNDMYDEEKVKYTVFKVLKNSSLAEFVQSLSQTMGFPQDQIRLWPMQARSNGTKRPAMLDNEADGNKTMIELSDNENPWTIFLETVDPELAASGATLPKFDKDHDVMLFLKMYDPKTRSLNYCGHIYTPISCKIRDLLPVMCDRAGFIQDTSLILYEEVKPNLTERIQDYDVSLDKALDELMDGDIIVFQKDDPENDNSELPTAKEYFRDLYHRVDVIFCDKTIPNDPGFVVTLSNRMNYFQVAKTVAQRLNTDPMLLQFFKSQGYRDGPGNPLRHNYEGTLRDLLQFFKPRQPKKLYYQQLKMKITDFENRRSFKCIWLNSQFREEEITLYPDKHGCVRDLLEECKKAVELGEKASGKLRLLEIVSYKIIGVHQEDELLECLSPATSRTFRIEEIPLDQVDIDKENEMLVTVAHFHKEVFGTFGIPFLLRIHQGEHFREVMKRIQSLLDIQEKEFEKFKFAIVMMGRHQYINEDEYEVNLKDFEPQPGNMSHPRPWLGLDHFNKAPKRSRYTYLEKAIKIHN

Substance | binding (Flag-tagged FTO) | binding [1] | binding [2]
Myc-tagged USP7 (from UniProt Q93009 1-1102) (enzyme) | binds | – | –
Ubiquitin-specific protease 7 (USP7), endogenous (from UniProt Q93009 1-1102) (enzyme) | – | binds | binds

From paper PMC10464189
